# Results published in EP0429304A2, “Pyridone-carboxylic acid derivatives and their use as veterinary medicines” (SHIONOGI SEIYAKU KABUSHIKI KAISHA trading under the name of …, priority 1989, dated 1991).
# Counter-ions that a name gives are not always drawn. At least one compound was matched to its structure with a doubt left.
# Tested on: TS-resistant MG
# Assay: Experimental MG infection to chicken, through bait
# Format: in vivo
# Settings: 880 ppm
smiles,measurement,value
"CN(C)[C@@H]1C(O)=C(C(N)=O)C(=O)[C@@]2(O)C(O)=C3C(=O)c4c(O)ccc(Cl)c4[C@@](C)(O)[C@H]3C[C@@H]12 [CTC, chlorotetracycline hydrochloride, reference compound]",inhibition of lesions in air sacs,could not inhibit lesions in air sacs
